Shown are survivors of the treated group in tumour-free mice. Survivors were counted at the toxicity check, usually on the fifth day, unless a day is given; later deaths do not show. Schedules are NCI's codes, taken here to give the interval after Q, in days (D) or hours (H), and the number of doses after X. Some doses were run more than once; the values are given in rising order.
System: B6D2F1 mice, nontumored toxicity test, survival
Assay: NCI In Vivo Anticancer Drug Screen. Data for tumor model Nontumored Animals (Toxicity Test) in B6D2F1 (BDF1) mice
Conditions: vehicle: saline

Measured: survivor count

NC(C/[N+]([O-])=N/O)C(=O)O (stereo unspecified)
8 of 8: dose: 8.0 mg/kg/injection, schedule: Q01DX009 (ip) | dose: 8.0 mg/kg/injection, schedule: Q01DX009 (oral) | dose: 8.0 mg/kg/injection, schedule: Q03HX008 (ip) | dose: 8.0 mg/kg/injection, schedule: Q03HX016 (ip) | dose: 8.0 mg/kg/injection, schedule: Q03HX024 (ip) | dose: 16.0 mg/kg/injection, schedule: Q01DX009 (ip) | dose: 16.0 mg/kg/injection, schedule: Q01DX009 (oral) | dose: 16.0 mg/kg/injection, schedule: Q01DX009 (sc) | dose: 16.0 mg/kg/injection, schedule: Q03HX016 (ip) | dose: 16.0 mg/kg/injection, schedule: Q03HX024 (ip) | dose: 32.0 mg/kg/injection, schedule: Q01DX001 (ip) | dose: 32.0 mg/kg/injection, schedule: Q01DX009 (ip) | dose: 32.0 mg/kg/injection, schedule: Q01DX009 (oral) | dose: 32.0 mg/kg/injection, schedule: Q01DX009 (sc) | dose: 32.0 mg/kg/injection, schedule: Q03HX008 (ip) | dose: 32.0 mg/kg/injection, schedule: Q03HX016 (ip) | dose: 32.0 mg/kg/injection, schedule: Q03HX024 (ip) | dose: 32.0 mg/kg/injection, schedule: Q04DX003 (ip) | dose: 32.0 mg/kg/injection, schedule: Q08DX002 (ip) | dose: 64.0 mg/kg/injection, schedule: Q01DX001 (ip) | dose: 64.0 mg/kg/injection, schedule: Q01DX001 (oral) | dose: 64.0 mg/kg/injection, schedule: Q01DX001 (sc) | dose: 64.0 mg/kg/injection, schedule: Q01DX009 (ip) | dose: 64.0 mg/kg/injection, schedule: Q01DX009 (sc) | dose: 64.0 mg/kg/injection, schedule: Q03HX008 (ip) | dose: 64.0 mg/kg/injection, schedule: Q03HX016 (ip) | dose: 64.0 mg/kg/injection, schedule: Q03HX024 (ip) | dose: 64.0 mg/kg/injection, schedule: Q04DX003 (ip) | dose: 64.0 mg/kg/injection, schedule: Q04DX003 (oral) | dose: 64.0 mg/kg/injection, schedule: Q08DX002 (ip) | dose: 128.0 mg/kg/injection, schedule: Q01DX001 (ip) | dose: 128.0 mg/kg/injection, schedule: Q01DX001 (oral) | dose: 128.0 mg/kg/injection, schedule: Q01DX001 (sc) | dose: 128.0 mg/kg/injection, schedule: Q01DX009 (ip) | dose: 128.0 mg/kg/injection, schedule: Q01DX009 (oral) | dose: 128.0 mg/kg/injection, schedule: Q01DX009 (sc) | dose: 128.0 mg/kg/injection, schedule: Q03HX008 (ip) | dose: 128.0 mg/kg/injection, schedule: Q03HX016 (ip) | dose: 128.0 mg/kg/injection, schedule: Q03HX024 (ip) | dose: 128.0 mg/kg/injection, schedule: Q04DX003 (ip) | dose: 128.0 mg/kg/injection, schedule: Q04DX003 (oral) | dose: 128.0 mg/kg/injection, schedule: Q04DX003 (sc) | dose: 128.0 mg/kg/injection, schedule: Q08DX002 (ip) | dose: 256.0 mg/kg/injection, schedule: Q01DX001 (ip) | dose: 256.0 mg/kg/injection, schedule: Q01DX001 (oral) | dose: 256.0 mg/kg/injection, schedule: Q01DX001 (sc) | dose: 256.0 mg/kg/injection, schedule: Q03HX008 (ip) | dose: 256.0 mg/kg/injection, schedule: Q03HX016 (ip) | dose: 256.0 mg/kg/injection, schedule: Q03HX024 (ip) | dose: 256.0 mg/kg/injection, schedule: Q04DX003 (oral) | dose: 256.0 mg/kg/injection, schedule: Q04DX003 (sc) | dose: 256.0 mg/kg/injection, schedule: Q08DX002 (ip) | dose: 512.0 mg/kg/injection, schedule: Q01DX001 (ip) | dose: 512.0 mg/kg/injection, schedule: Q01DX001 (oral) | dose: 512.0 mg/kg/injection, schedule: Q01DX001 (sc) | dose: 512.0 mg/kg/injection, schedule: Q04DX003 (ip) | dose: 512.0 mg/kg/injection, schedule: Q04DX003 (oral) | dose: 512.0 mg/kg/injection, schedule: Q04DX003 (sc) | dose: 512.0 mg/kg/injection, schedule: Q08DX002 (ip) | dose: 1024.0 mg/kg/injection, schedule: Q01DX001 (ip) | dose: 1024.0 mg/kg/injection, schedule: Q01DX001 (oral) | dose: 1024.0 mg/kg/injection, schedule: Q04DX003 (sc) | dose: 1024.0 mg/kg/injection, schedule: Q08DX002 (ip)
7 of 8 and 8 of 8: dose: 64.0 mg/kg/injection, schedule: Q01DX009 (oral) | dose: 256.0 mg/kg/injection, schedule: Q04DX003 (ip)
2 of 8: dose: 256.0 mg/kg/injection, schedule: Q01DX009 (oral)
5 of 8: dose: 256.0 mg/kg/injection, schedule: Q01DX009 (sc) | dose: 512.0 mg/kg/injection, schedule: Q01DX009 (ip) | dose: 1024.0 mg/kg/injection, schedule: Q01DX009 (ip) | dose: 1024.0 mg/kg/injection, schedule: Q01DX009 (oral)
4 of 8: dose: 512.0 mg/kg/injection, schedule: Q01DX009 (sc) | dose: 1024.0 mg/kg/injection, schedule: Q01DX009 (sc)
0 of 8: dose: 512.0 mg/kg/injection, schedule: Q01DX009 (oral)
7 of 8: dose: 16.0 mg/kg/injection, schedule: Q03HX008 (ip) | dose: 1024.0 mg/kg/injection, schedule: Q01DX001 (sc) | dose: 1024.0 mg/kg/injection, schedule: Q04DX003 (ip)
3 of 8: dose: 256.0 mg/kg/injection, schedule: Q01DX009 (ip)

O=CC(NC(=O)N(CCCl)N=O)C(O)C(O)C(O)CO (stereo unspecified)
10 of 10: dose: 16.0 mg/kg/injection, schedule: Q01DX001 (ip) | dose: 20.0 mg/kg/injection, schedule: Q01DX001 (ip) | dose: 24.0 mg/kg/injection, schedule: Q01DX001 (ip) | dose: 28.0 mg/kg/injection, schedule: Q01DX001 (ip)
